Source: PubChem BioAssay AID540256 (National Center for Advancing Translational Sciences (NCATS), 2011)
The campaign covered roughly 300,000 compounds. About 3,700 (1.2%) were called active. This list was built around the results that the source calls inconclusive (neither active nor inactive); the mix of calls is not that of the screen. Calls come from the whole dose curve; tested in HEK293 cells. Potencies beside an inconclusive call are fits to weak or partial responses and may not hold up.

Assay: qHTS for Inhibitors of binding or entry into cells for Lassa Virus; note: nearly all actives have a fitted effect of over 50% in size
Details: Lassa virus pseudotype entry inhibition, cell reporter; series mostly up to 37.9 µM
Potency is the fitted concentration of half-maximal effect.

Row | Structure (SMILES) | Potency
1 | CCOc1ccccc1N1CCN(C/C=C/c2ccc(N(C)C)cc2)CC1 | inconclusive: 10 µM [inhibitor, partial curve]
2 | Cc1cc2occ(CC(=O)N(CCC(C)C)c3c(N)n(Cc4ccccc4)c(=O)[nH]c3=O)c2cc1C | inconclusive: 3.55 µM [inhibitor, single point]
3 | COc1cc(C(=O)OCc2cc(=O)oc3c(C)c(C)ccc23)ccc1OC(F)F | inconclusive: 1.26 µM [inhibitor, full curve]
4 | O=C(O)CN(c1ccccc1[N+](=O)[O-])S(=O)(=O)c1ccccc1 | inactive
5 | Cc1cc(C)c(NC(=O)CSc2ccc3nnc(CCNC(=O)c4ccccc4)n3n2)c(C)c1 | inactive
6 | Cc1ccc(CNC(=O)C2(c3cccs3)CCOCC2)cc1 | inconclusive: 35.5 µM [inhibitor, single point]
7 | Cc1ccc(OCCn2c(=O)n(C)c3ccccc32)cc1 | inactive
8 | COC(=O)c1ccc(OC)c(CN2CCCN(Cc3ccc(F)cc3)S2(=O)=O)c1 | inconclusive: 14.1 µM [inhibitor, partial curve, poor fit]
9 | Cc1cc2cc3c(cc2nc1SCC(=O)N1CCCC1)OCCO3 | inactive
10 | COc1ccc(CN(Cc2ccc(OC)cc2)S(=O)(=O)c2ccc(-n3cnnn3)c(C)c2)cc1 | inconclusive: 7.3 µM [inhibitor, partial curve, poor fit]
11 | CCN=C1Cn2c(nc3scc(-c4ccccc4)c3c2=O)CN1CC | inconclusive: 0.0231 µM [activator, full curve, poor fit]
12 | CNc1nc(N)c([N+](=O)[O-])c(NC2CCCCC2)n1 | inconclusive: 5.62 µM [inhibitor, single point]
13 | Cc1ccc2c(COC(=O)C3=COCCO3)cc(=O)oc2c1 | inconclusive: 1.26 µM [activator, single point]
14 | Cc1cc(C(=O)COC(=O)c2n[nH]c3ccccc23)c(C)n1CC1CCCO1 (configuration not stated) | inconclusive: 16.4 µM [inhibitor, single point]
15 | Cc1ccc(C)c(CSc2nc3[nH]ncc3c(=O)[nH]2)c1 | inconclusive: 0.562 µM [inhibitor, full curve, poor fit]
16 | O=C1C=C(c2ccccc2)C[C@H](c2cccs2)[C@H]1n1nnc([N+](=O)[O-])n1 | inconclusive: 11.2 µM [inhibitor, partial curve, poor fit]
17 | COC(=O)c1sc(-c2ccccc2)cc1NC(=O)Nc1ccccc1Cl | inconclusive: 8.91 µM [activator, partial curve]
18 | C=CCN(c1ccccc1)S(=O)(=O)c1cccc(C(=O)NCC(c2ccc(F)cc2)N2CCOCC2)c1 (configuration not stated) | inconclusive: 35.5 µM [inhibitor, single point]
19 | CCOC(=O)c1c(-c2cccs2)csc1NC(=O)CC(C)C | inactive
20 | Cc1ccc(Oc2ccccc2)c(NC=O)c1 | inactive
21 | CN(C)S(=O)(=O)c1ccc(C(=O)NCCSc2ccc(Br)cc2)cc1 | inconclusive: 20 µM [inhibitor, partial curve, poor fit]
22 | Cc1nn(CC(=O)Nc2sc3c(c2C#N)CCC(C(C)(C)C)C3)c(C)c1[N+](=O)[O-] (configuration not stated) | inactive
23 | COc1ccc(NC(=S)N/N=C/c2cccn2Cc2ccc(F)cc2Cl)cc1 | inconclusive: 6.31 µM [inhibitor, partial curve]
24 | CCOC(=O)c1cc(-c2ccc(OC)cc2)n(CCC(=O)Nc2ccc(OC)cc2OC)c1C | inconclusive: 14.1 µM [inhibitor, single point]

A draw from above in order of molar mass, ascending:
Row | Structure (SMILES) | Potency
19 | CCOC(=O)c1c(-c2cccs2)csc1NC(=O)CC(C)C | inactive
14 | Cc1cc(C(=O)COC(=O)c2n[nH]c3ccccc23)c(C)n1CC1CCCO1 (configuration not stated) | inconclusive: 16.4 µM [inhibitor, single point]
17 | COC(=O)c1sc(-c2ccccc2)cc1NC(=O)Nc1ccccc1Cl | inconclusive: 8.91 µM [activator, partial curve]
18 | C=CCN(c1ccccc1)S(=O)(=O)c1cccc(C(=O)NCC(c2ccc(F)cc2)N2CCOCC2)c1 (configuration not stated) | inconclusive: 35.5 µM [inhibitor, single point]

Continuation:

Row | Structure (SMILES) | Potency
25 | Nc1cc2c(cc1Cl)-c1ccc(Cl)cc1C2 | inconclusive: 1.12 µM [activator, full curve, poor fit]
26 | CCN(CC)S(=O)(=O)c1cccc(C(=O)N/N=C/c2c(C)nn(-c3ccccc3)c2Cl)c1 | inactive
27 | O=C1CC(c2ccccc2)CC(O)=C1C=NC1CCCC1 (configuration not stated) | inactive
28 | O=C(Nc1nnc2n1CCS2)c1ccccc1 | inactive
29 | Cc1ccc(-c2csc(SCC(=O)c3c(N)n(C4CC4)c(=O)[nH]c3=O)n2)cc1 | inconclusive: 4.47 µM [inhibitor, full curve, poor fit]
30 | COc1cccc(C(=O)Nc2ccc(-c3nnc(-c4ccco4)o3)cc2)c1 | inconclusive: 5.62 µM [inhibitor, partial curve, poor fit]
31 | CN(Cc1cccs1)C(=O)COc1ccc(-c2nnco2)cc1 | inactive
32 | CC(C)c1ccc(NC(=S)NCCc2c[nH]c3ccccc23)cc1 | inconclusive: 13 µM [inhibitor, partial curve]
33 | COc1cc(CNCCc2ccccc2)cc(Cl)c1OCc1ccccc1 | inconclusive: 35.5 µM [inhibitor, single point]
34 | CCS(=O)(=O)n1nc(C(=O)N2CCOCC2)nc1N | inconclusive: 1.46 µM [activator, partial curve, poor fit]
35 | Cc1cc(C)cc(NC(=O)CCS(=O)(=O)c2ccc3c(c2)oc(=O)n3C)c1 | inactive
36 | COCC(=O)Nc1cc(C)cn(Cc2ccccc2Cl)c1=O | inactive
37 | CCCc1cc(=O)[nH]c(SCC(=O)Nc2nc3ccc(OCC)cc3s2)n1 | inactive
38 | O=C1c2cccc3cccc(c23)C(=O)N1OS(=O)(=O)c1ccccc1 | inactive
39 | CN(C)CCNc1ncnc2c1sc1nc(-c3ccccc3)c3c(c12)CCCC3 | inconclusive: 17.8 µM [inhibitor, single point]
40 | O=C(NCc1ccccc1)N1CCc2c(sc3c2CCCC3)C1c1ccccc1 (configuration not stated) | inconclusive: 35.5 µM [inhibitor, single point]
41 | Cc1ccc(C2CC2/C(=N/O)c2ccc(F)cc2)cc1 (configuration not stated) | inconclusive: 35.5 µM [inhibitor, single point]
42 | COc1cccc(C2(CSc3nnc(-c4cc(OC)c(OC)c(OC)c4)o3)OCCO2)c1 | active: 11.2 µM
43 | COC(=O)c1ccc2c(=O)n(CCCCCC(=O)NC(C)C)c(=O)[nH]c2c1 | inconclusive: 0.126 µM [inhibitor, full curve, poor fit]
44 | Cc1ccccc1OCCCSc1nc2ccccc2[nH]1 | inconclusive: 28.2 µM [inhibitor, single point]
45 | Nc1ccnc(Oc2ccc(F)cc2)c1 | inconclusive: 3.16 µM [activator, single point]
46 | COc1cc(-c2nnc(SCC(=O)Oc3ccc(C)cc3C)o2)cc(OC)c1OC | inactive
47 | Cc1ccc(CNC(=O)c2nc(S(=O)(=O)Cc3ccc(C)cc3)ncc2Cl)cc1 | inconclusive: 8.91 µM [inhibitor, partial curve]
48 | C=CCN1C(=O)CSc2ccc(C(=O)NCc3cccs3)cc21 | inconclusive: 28.2 µM [inhibitor, partial curve, poor fit]

Row | Structure (SMILES) | Potency
49 | CCOC(=O)C1(C)C=C(Nc2cccc(C)c2)C(=O)N1c1ccccc1 (configuration not stated) | inactive
50 | Cc1ccc(-n2c(SCc3cn4ccsc4n3)nc3ccccc3c2=O)cc1 | inconclusive: 35.5 µM [inhibitor, single point]
51 | COc1ccc(NC(=O)CN(c2ccccc2OC)S(C)(=O)=O)c(OC)c1 | inconclusive: 12.6 µM [activator, partial curve, poor fit]
52 | Cc1cccc(C(=O)Nc2sc(C)c(-c3ccccc3)c2C#N)c1 | inconclusive: 32.6 µM [inhibitor, single point]
53 | Cc1cc(C)cc(NC(=O)CCCn2nc(C)c3c(C)n(-c4ccccc4)nc3c2=O)c1 | inconclusive: 11.2 µM [activator, single point]
54 | CC(C)n1ncc2c(C(=O)N3CCN(Cc4ccc(Cl)s4)CC3)cc(C3CC3)nc21 | inactive
55 | O=CC1=C(c2ccccc2)Oc2ccccc2O1 | inconclusive: 22.4 µM [inhibitor, single point]
56 | Fc1ccc(N=c2ssnc2Cl)c(F)c1 | inactive
57 | O=C(Cn1ccc2ccccc2c1=O)NCCC(=O)Nc1ccc2c(c1)OCCO2 | inactive
58 | CCN(CC(=O)Nc1c(F)cccc1F)C(=O)Cc1ccc2c(c1)CCC2 | inconclusive: 3.16 µM [inhibitor, full curve, poor fit]
59 | Cc1ccc(/C=N/NC(=O)c2ccoc2C)s1 | inconclusive: 4.11 µM [activator, single point]
60 | O=C(Nc1cccnc1)c1ccc(Br)s1 | inactive
61 | COc1cc(S(=O)(=O)NCc2ccccc2)ccc1Br | inconclusive: 0.146 µM [inhibitor, full curve, poor fit]
62 | CC1CN(S(=O)(=O)c2cccc(C(=O)Nc3ccc4c(c3)CCC4)c2)CC(C)O1 (configuration not stated) | inconclusive: 1 µM [inhibitor, single point]
63 | COc1ccccc1CNC(=O)COc1ccc(S(=O)(=O)N2CCCC2)cc1 | inactive
64 | O=C(NCc1ccc2c(c1)OCO2)c1cc(-c2ccccc2Cl)on1 | inactive
65 | CC(=O)c1c(C)[nH]c(C(=O)CSc2nc3ccccc3c(=O)n2CCCN2CCOCC2)c1C | inactive
66 | Cc1cc(C)nc(N(C#N)Cc2cccc3ccccc23)n1 | inconclusive: 0.0651 µM [inhibitor, partial curve, poor fit]
67 | NC(=S)N=Nc1c(O)[nH]c2ccc(F)cc12 | inactive
68 | Cc1ccc(C(=O)Nc2ncc3c(n2)CC(c2ccco2)CC3=O)cc1 (configuration not stated) | inactive
69 | CC(C)c1ccc(/C=C(\C#N)c2nc(-c3cc4ccccc4oc3=O)cs2)cc1 | inactive
70 | CCN(CC)CCN(Cc1cc2cc(C)ccc2[nH]c1=O)C(=O)Nc1ccccc1OC | inactive
71 | COc1ccccc1N1CCN(c2nc3ccccn3c(=O)c2C=O)CC1 | inconclusive: 3.55 µM [inhibitor, single point]
72 | Cc1ccc(NC(=S)N(CCN(C)C)C(C)c2cccnc2)cc1 (configuration not stated) | inconclusive: 0.891 µM [inhibitor, partial curve, poor fit]
